Assay results from the supplement of paper PMC12067093, “Discovery and optimisation of a covalent ligand for TRIM25 and its application to targeted protein ubiquitination” (Chemical Science, 2025).
Some of the results follow.

Chains of the proteins cited; added tags and fusions are not shown. Lines headed by an entry give the natural chain unless they say otherwise; changes in a name come on top.
UniProt Q14161: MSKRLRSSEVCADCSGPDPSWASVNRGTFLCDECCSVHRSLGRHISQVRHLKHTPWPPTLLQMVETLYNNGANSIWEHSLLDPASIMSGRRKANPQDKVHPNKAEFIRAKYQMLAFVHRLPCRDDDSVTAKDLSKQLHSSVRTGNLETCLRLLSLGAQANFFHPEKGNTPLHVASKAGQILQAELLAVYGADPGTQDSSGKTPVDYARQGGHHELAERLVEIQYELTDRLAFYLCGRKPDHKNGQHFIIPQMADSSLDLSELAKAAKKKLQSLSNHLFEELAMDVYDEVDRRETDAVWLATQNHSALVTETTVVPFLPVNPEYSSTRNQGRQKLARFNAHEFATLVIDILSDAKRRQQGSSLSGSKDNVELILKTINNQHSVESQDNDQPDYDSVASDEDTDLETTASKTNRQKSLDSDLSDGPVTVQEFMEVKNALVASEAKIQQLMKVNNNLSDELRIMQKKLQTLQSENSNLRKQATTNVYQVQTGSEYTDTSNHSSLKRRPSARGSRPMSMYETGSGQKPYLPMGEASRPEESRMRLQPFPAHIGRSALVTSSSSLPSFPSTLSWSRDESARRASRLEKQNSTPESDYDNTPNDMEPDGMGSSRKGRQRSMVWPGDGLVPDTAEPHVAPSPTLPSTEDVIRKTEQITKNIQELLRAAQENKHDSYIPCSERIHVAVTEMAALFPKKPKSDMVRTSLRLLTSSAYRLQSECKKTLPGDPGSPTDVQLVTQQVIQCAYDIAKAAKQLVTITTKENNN
UniProt P41250: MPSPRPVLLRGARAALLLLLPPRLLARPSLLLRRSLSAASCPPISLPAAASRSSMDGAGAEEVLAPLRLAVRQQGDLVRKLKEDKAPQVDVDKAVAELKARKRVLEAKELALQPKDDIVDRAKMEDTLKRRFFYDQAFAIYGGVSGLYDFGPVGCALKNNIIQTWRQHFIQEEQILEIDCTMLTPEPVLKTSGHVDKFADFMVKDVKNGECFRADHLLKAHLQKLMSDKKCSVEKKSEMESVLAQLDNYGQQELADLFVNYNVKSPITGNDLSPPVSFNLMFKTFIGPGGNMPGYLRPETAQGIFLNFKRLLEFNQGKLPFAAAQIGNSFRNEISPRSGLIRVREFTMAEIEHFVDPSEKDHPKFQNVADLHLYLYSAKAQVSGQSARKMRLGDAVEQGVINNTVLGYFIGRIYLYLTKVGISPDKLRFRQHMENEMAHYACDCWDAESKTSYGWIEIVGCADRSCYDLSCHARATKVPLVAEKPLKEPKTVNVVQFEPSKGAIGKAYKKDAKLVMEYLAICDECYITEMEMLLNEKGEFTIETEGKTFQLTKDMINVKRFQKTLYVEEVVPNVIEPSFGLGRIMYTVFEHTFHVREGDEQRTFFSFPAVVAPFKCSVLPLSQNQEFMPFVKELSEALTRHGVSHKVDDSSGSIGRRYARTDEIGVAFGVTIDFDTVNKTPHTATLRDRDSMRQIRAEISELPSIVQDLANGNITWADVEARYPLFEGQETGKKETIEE
UniProt Q06210: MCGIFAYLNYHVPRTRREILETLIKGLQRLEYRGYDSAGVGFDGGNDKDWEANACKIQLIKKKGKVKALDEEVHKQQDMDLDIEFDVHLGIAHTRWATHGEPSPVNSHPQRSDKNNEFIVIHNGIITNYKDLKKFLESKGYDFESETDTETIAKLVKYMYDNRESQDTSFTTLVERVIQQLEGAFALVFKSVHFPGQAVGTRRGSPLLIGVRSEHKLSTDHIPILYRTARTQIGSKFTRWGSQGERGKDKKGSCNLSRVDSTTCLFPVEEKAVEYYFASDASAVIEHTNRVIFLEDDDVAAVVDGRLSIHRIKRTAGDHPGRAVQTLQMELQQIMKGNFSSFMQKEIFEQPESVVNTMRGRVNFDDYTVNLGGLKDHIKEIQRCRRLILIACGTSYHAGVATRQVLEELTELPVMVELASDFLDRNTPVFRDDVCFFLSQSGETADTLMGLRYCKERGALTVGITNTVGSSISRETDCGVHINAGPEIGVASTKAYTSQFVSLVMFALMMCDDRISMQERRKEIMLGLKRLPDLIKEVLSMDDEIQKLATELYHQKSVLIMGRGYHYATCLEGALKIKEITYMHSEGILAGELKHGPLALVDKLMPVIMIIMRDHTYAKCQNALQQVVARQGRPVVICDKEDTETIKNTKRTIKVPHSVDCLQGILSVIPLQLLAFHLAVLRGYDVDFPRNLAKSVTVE
UniProt Q92616, whole entry, looked up: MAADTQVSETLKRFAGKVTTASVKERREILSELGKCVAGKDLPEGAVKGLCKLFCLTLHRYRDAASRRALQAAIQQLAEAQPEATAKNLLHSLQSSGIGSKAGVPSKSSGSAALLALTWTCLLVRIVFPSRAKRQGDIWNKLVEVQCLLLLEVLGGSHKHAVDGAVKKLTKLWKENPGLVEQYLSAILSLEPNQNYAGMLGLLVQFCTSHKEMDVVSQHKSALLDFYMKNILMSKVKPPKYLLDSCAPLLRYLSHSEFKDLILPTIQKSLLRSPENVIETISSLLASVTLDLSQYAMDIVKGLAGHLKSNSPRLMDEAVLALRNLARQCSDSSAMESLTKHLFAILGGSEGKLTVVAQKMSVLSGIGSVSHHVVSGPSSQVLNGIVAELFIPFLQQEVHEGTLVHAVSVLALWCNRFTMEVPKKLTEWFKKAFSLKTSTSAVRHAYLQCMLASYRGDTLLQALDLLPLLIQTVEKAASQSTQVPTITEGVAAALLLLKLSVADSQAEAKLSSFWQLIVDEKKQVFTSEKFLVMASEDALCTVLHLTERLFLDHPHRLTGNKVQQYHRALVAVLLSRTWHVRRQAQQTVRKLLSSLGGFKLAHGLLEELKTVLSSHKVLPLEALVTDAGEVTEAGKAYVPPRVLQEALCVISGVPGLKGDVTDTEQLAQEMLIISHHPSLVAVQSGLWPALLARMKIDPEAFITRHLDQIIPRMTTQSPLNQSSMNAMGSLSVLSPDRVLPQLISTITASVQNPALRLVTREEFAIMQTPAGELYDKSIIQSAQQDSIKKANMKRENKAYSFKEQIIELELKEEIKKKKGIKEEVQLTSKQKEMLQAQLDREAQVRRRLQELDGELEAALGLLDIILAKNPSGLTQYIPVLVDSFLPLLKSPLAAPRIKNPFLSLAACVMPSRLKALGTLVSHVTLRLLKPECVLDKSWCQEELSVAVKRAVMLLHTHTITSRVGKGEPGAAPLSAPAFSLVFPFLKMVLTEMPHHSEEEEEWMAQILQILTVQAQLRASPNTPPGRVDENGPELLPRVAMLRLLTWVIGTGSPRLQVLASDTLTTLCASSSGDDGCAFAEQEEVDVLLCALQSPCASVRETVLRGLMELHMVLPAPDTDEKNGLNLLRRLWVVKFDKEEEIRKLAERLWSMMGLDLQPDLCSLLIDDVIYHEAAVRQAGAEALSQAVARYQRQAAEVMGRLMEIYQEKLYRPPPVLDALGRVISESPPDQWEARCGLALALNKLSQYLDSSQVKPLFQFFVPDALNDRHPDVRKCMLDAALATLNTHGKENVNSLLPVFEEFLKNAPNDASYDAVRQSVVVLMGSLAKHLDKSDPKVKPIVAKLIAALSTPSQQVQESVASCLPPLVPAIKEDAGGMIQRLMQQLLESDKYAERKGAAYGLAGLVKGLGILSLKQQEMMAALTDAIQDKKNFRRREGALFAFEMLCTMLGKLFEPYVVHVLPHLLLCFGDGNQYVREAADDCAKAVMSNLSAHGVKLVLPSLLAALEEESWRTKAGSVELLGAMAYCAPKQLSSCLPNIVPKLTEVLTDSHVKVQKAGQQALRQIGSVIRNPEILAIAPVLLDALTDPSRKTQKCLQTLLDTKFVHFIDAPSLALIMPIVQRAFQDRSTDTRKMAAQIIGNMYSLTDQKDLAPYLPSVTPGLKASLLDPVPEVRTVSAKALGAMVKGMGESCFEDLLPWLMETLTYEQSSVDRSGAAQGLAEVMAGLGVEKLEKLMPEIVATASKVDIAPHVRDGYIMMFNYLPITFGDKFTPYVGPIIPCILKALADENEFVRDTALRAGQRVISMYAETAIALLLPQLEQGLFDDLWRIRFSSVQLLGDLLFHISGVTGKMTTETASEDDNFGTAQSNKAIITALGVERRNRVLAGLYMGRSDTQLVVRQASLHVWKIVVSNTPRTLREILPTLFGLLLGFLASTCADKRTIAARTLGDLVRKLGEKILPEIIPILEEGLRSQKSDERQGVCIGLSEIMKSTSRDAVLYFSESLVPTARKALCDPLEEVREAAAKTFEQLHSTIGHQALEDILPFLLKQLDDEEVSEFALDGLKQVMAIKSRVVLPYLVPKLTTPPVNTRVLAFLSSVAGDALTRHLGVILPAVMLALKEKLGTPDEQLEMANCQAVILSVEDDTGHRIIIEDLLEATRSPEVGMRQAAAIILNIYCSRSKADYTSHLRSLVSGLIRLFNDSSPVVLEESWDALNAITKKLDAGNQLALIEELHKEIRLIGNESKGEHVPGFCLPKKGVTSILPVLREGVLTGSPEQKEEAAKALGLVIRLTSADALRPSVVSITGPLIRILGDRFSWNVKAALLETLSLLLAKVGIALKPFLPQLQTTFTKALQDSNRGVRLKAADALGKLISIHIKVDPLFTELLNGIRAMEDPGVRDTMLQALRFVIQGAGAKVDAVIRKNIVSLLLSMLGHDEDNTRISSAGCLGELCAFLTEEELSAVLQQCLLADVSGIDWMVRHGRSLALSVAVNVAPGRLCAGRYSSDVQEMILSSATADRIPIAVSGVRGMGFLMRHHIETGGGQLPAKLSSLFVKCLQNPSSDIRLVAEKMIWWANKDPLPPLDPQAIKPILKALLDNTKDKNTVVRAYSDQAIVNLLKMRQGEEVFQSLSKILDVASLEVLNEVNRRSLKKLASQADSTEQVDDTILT
UniProt O75600: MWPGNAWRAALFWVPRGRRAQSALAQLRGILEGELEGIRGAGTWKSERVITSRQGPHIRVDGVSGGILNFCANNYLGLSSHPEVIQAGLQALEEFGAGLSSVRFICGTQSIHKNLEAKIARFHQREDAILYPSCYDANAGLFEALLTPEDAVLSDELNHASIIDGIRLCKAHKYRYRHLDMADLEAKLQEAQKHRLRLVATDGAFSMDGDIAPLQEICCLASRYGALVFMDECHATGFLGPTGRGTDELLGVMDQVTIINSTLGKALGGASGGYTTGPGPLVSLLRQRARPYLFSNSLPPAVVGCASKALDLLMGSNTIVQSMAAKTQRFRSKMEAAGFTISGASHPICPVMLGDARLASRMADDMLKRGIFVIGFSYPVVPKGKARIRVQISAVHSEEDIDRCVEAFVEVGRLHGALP
UniProt P22102: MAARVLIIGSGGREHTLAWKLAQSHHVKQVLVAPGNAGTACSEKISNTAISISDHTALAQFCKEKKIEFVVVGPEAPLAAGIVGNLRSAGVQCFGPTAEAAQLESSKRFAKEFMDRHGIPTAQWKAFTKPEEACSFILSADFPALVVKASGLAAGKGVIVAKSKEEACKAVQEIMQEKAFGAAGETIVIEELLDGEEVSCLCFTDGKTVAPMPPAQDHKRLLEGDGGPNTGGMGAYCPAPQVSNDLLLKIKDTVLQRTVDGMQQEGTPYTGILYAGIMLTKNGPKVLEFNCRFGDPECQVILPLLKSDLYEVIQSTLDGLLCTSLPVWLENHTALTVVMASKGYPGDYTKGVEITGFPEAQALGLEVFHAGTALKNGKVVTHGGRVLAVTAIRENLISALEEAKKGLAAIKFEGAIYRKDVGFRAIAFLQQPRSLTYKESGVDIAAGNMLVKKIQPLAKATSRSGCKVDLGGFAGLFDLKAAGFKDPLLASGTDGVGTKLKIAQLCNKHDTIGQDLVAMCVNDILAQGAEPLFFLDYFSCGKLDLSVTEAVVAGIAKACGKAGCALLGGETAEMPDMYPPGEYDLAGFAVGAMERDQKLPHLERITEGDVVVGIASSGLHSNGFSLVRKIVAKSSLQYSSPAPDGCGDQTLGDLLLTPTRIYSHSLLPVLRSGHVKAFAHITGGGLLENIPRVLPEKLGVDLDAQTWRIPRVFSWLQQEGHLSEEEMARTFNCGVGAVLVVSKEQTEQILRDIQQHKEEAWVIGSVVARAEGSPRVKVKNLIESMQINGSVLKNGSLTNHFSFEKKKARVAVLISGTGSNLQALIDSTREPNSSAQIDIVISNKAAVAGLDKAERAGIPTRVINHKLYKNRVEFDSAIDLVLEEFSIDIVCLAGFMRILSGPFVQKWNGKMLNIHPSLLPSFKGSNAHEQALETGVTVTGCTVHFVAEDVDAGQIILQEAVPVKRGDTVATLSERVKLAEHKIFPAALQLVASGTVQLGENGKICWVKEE
UniProt O75223: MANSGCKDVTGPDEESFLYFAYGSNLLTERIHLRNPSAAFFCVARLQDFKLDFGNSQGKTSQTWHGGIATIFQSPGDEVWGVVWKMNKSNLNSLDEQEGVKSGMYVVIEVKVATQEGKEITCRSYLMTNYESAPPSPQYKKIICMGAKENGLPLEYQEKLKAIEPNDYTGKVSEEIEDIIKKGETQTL

Compound: CC1Cc2ccccc2N1C(=O)C1CCCN(C1)C(=O)CCl (mixture of isomers) [TRIM25 ligand 11 (diastereomer mixture)]
Test: probe-labelled cysteine peptide fold change vs DMSO (competition) (log2 fold change); higher = less target engagement (more negative = stronger competition)
Conditions: THP-1, incubation time: 4 h
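Also: competitive chemoproteomic profiling in live THP-1 cells with an iodoacetamide desthiobiotin (IA-DTB) probe, comparing probe-labelled peptide intensities in compound-treated cells against DMSO-treated controls.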

Row | Target | probe-labelled cysteine peptide fold change (10 µM) | probe-labelled cysteine peptide fold change (50 µM)
1 | GDPD1_Q8N9F7_75_IGTDMLELDCHITK (UniProt Q8N9F7) | -0.221 | -0.4
2 | GATB_O75879_115_CVEAAVMTGLALNCHINKK (UniProt O75879) | -0.19 | 0.188
3 | GIT2_Q14161_122_LPCRDDDSVTAK (UniProt Q14161) | -0.0143 | -0.063
4 | GARS_P41250_442+444_QHMENEMAHYACDCWDAESK (UniProt P41250) | 0.111 | 0.00341
5 | GFPT1_Q06210_55_DWEANACK (UniProt Q06210) | -0.0786 | -0.0864
6 | GFI1_Q99684_155_GAGLGLFCEPAPEPGHPAALYGPK (UniProt Q99684) | -0.107 | -0.191
7 | GEMIN8_Q9NWZ8_180_QQQLDAERLDSYVNADHDLYCNTR (UniProt Q9NWZ8) | -0.131 | -0.194
8 | GAN_Q9H2C0_452_TQQWTAICPLK (UniProt Q9H2C0) | 0.0042 | 0.0857
9 | GANAB_Q14697_822_SSECMKDDPITLFVALSPQGTAQGELFLDDGHTFNYQTR (UniProt Q14697) | -0.0463 | 0.116
10 | GFM1_Q96RP9_706_SCTEGK (UniProt Q96RP9) | 0.057 | -0.000645
11 | GATAD2B_Q8WXI9_444_ILCEQCMTSNQK (UniProt Q8WXI9) | -0.15 | -0.124
12 | GCN1_Q92616_1275_CMLDAALATLNTHGK (UniProt Q92616) | 0.00529 | -0.0947
13 | GCAT_O75600_106_FICGTQSIHK (UniProt O75600) | 0.176 | -0.0443
14 | GART_P22102_298_FGDPECQVILPLLK (UniProt P22102) | 0.0971 | 0.165
15 | GEMIN4_P57678_210_LRSDPDACPTMPLLAMLLR (UniProt P57678) | -0.252 | -0.0506
16 | GCN1_Q92616_907_NPFLSLAACVMPSR (UniProt Q92616) | -0.253 | 0.223
17 | GIMAP8_Q8ND71_214_FQDCVNEAASQEGDKPQGPR (UniProt Q8ND71) | -0.0867 | -0.321
18 | GCLM_P48507_35+46_CPSTHSEELHDCIQK (UniProt P48507) | 0.0628 | -0.235
19 | GFPT1_Q06210_264_VDSTTCLFPVEEK (UniProt Q06210) | 0.0965 | 0.088
20 | GGCT_O75223_144_IICMGAK (UniProt O75223) | -0.0146 | -0.017
21 | GATD1_Q8NB37_122+132_ILQHFHSESKPICAVGHGVAALCCATNEDR (UniProt Q8NB37) | 0.0703 | 0.0626
22 | GART_P22102_93_SAGVQCFGPTAEAAQLESSKR (UniProt P22102) | -0.13 | -0.00804
23 | GALNT6_Q8NCL4_509_NLGTNQCLDVGENNR (UniProt Q8NCL4) | 0.354 | 0.12
24 | GBA_P04062_165_VPMASCDFSIR (UniProt P04062) | 0.00577 | 0.0973
25 | GALNT1_Q10472_212+214_GQVITFLDAHCECTVGWLEPLLAR (UniProt Q10472) | 0.115 | 0.0411
26 | GIGYF1_O75420_177_CGFEEGGAGPR (UniProt O75420) | 0.0176 | -0.22
27 | GCN1_Q92616_1595_CLQTLLDTK (UniProt Q92616) | 0.0151 | 0.0572
28 | GDE1_Q9NZC3_127_LCDLTFEQIR (UniProt Q9NZC3) | -0.0132 | -0.171

2 entries from above, tab-delimited:
Row	Target	probe-labelled cysteine peptide fold change (10 µM)	probe-labelled cysteine peptide fold change (50 µM)
3	GIT2_Q14161_122_LPCRDDDSVTAK (UniProt Q14161)	-0.0143	-0.063
4	GARS_P41250_442+444_QHMENEMAHYACDCWDAESK (UniProt P41250)	0.111	0.00341
